Laboratory results as given in publication PMC3419181.
Results are given in words; binding and its absence hold for the method and conditions named. In cells and extracts the contact can be indirect. Binding can be weak; no strength is given. Tags and fused reporters may be left off the sequences shown.

Target: HA-TNIK-ΔGCKH (human)
Experiment: co-IP; HEK293 cells co-transfected with tagged TNIK (or HA-TNIK domain constructs) and the tagged partner, without LMP1; tagged TNIK immunoprecipitated by anti-HA (12CA5) or anti-Flag (6F7); immunoblot

B1: Flag-TAK1 (protein, UniProt O43318 1-606)
chain: MSTASAASSSSSSSAGEMIEAPSQVLNFEEIDYKEIEVEEVVGRGAFGVVCKAKWRAKDVAIKQIESESERKAFIVELRQLSRVNHPNIVKLYGACLNPVCLVMEYAEGGSLYNVLHGAEPLPYYTAAHAMSWCLQCSQGVAYLHSMQPKALIHRDLKPPNLLLVAGGTVLKICDFGTACDIQTHMTNNKGSAAWMAPEVFEGSNYSEKCDVFSWGIILWEVITRRKPFDEIGGPAFRIMWAVHNGTRPPLIKNLPKPIESLMTRCWSKDPSQRPSMEEIVKIMTHLMRYFPGADEPLQYPCQYSDEGQSNSATSTGSFMDIASTNTSNKSDTNMEQVPATNDTIKRLESKLLKNQAKQQSESGRLSLGASRGSSVESLPPTSEGKRMSADMSEIEARIAATTAYSKPKRGHRKTASFGNILDVPEIVISGNGQPRRRSIQDLTVTGTEPGQVSSRSSSPSVRMITTSGPTSEKPTRSHPWTPDDSTDTNGSDNSIPMAYLTLDHQLQPLAPCPNSKESMAVFEQHCKMAQEYMKVQTEIALLLQRKQELVAELDQDEKDQQNTSRLVQEHKKLLDENKSLSTYYQQCKKQLEVIRSQQQKRQGTS
binding: binds weakly
